Test results as given in the supplement of paper PMC10849652.
The list shows a part of the results.

Amino acid sequences for entries named in this document (tags omitted). A change or cut given only in a name is not applied to a line headed by its entry.
UniProt O14787: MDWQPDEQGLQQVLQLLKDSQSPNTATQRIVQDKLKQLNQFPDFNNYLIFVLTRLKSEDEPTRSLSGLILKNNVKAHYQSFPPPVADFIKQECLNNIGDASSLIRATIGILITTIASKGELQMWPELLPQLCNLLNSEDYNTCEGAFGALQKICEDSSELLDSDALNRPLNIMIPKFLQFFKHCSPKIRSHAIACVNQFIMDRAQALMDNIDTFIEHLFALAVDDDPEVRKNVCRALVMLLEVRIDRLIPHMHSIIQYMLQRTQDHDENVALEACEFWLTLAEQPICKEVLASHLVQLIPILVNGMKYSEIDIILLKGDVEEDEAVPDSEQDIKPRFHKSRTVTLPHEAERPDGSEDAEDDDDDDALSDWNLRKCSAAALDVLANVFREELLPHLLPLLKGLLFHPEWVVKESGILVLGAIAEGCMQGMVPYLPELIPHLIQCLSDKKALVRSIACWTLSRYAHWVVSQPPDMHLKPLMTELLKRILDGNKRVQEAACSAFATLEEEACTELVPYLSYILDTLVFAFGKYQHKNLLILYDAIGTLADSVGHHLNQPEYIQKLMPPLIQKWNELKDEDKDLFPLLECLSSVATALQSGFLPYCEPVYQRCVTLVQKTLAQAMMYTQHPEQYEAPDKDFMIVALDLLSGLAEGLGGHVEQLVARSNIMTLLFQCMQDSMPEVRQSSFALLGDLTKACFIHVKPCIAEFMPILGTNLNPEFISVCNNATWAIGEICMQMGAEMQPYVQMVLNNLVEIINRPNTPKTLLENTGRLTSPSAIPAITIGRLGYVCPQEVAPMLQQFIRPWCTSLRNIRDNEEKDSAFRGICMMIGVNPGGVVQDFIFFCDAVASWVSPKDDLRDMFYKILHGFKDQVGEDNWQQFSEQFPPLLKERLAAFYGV
UniProt Q9C035: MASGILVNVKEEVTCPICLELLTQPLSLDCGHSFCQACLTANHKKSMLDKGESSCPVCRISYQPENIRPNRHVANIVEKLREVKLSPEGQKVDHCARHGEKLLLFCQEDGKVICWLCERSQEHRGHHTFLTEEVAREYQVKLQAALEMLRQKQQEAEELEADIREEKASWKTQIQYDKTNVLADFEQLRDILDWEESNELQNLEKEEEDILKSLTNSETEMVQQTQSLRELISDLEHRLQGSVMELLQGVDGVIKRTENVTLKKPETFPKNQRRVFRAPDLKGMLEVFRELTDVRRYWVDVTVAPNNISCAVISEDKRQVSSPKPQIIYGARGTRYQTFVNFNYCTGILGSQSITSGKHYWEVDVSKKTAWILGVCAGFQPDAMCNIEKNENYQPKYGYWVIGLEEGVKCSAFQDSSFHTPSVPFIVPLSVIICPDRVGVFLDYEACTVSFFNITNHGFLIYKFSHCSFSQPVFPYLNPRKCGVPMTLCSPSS
UniProt Q9P0U1: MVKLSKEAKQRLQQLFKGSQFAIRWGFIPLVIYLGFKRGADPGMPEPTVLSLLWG
UniProt Q9H4I3: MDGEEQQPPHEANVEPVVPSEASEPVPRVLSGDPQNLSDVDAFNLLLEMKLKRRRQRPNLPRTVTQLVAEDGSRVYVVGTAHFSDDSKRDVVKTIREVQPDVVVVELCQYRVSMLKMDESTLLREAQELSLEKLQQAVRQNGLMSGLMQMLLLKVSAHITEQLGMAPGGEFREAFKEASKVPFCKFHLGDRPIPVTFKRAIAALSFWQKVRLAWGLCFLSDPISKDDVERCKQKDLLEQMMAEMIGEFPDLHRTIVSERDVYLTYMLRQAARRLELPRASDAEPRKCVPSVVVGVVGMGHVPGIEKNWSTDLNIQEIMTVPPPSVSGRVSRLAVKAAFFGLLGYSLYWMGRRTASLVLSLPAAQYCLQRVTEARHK
UniProt Q92973: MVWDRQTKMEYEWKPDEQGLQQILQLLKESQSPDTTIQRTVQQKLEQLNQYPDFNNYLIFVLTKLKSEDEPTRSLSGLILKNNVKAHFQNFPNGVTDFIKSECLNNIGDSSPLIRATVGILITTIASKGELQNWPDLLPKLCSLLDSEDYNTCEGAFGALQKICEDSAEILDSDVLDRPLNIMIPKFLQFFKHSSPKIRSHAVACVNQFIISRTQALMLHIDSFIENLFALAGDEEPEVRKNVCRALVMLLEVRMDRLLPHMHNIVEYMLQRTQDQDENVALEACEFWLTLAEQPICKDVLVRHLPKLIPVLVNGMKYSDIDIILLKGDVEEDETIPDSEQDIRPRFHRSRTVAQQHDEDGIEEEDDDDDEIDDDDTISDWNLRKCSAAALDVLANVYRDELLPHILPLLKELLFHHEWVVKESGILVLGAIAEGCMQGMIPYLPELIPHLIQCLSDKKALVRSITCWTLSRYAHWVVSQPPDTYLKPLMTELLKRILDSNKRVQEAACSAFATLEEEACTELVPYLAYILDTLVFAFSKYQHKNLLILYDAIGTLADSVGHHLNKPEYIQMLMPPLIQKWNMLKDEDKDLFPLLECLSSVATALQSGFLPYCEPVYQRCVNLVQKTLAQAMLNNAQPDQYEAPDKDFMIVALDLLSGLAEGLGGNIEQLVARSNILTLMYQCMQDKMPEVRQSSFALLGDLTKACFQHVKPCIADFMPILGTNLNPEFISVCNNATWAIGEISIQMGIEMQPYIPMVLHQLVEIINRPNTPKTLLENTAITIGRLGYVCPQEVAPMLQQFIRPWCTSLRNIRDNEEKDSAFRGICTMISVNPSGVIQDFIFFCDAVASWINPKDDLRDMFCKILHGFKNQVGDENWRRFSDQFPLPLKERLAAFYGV
UniProt Q9BW30: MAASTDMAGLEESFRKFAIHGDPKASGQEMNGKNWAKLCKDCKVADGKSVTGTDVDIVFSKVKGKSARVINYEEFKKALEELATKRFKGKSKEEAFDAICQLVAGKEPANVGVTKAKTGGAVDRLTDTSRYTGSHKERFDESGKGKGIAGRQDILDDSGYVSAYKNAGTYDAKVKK
UniProt Q6Q0C0: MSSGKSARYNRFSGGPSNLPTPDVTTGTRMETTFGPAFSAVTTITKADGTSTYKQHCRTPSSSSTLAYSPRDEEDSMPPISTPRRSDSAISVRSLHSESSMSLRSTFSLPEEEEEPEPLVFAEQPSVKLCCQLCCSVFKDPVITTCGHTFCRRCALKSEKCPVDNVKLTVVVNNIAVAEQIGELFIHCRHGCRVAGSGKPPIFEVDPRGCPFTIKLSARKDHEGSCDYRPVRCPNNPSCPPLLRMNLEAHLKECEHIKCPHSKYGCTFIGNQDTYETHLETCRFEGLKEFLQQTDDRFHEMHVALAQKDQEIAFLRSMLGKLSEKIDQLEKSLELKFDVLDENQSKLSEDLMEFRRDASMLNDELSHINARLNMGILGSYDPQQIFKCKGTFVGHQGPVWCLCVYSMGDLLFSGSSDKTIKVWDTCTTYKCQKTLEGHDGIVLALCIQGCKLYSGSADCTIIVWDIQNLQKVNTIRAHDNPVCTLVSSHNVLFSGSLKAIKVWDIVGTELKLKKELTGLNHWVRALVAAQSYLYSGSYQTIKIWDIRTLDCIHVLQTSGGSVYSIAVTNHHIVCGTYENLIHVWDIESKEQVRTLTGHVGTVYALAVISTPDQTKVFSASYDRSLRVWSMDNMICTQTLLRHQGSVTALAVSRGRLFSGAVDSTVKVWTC
UniProt Q15642: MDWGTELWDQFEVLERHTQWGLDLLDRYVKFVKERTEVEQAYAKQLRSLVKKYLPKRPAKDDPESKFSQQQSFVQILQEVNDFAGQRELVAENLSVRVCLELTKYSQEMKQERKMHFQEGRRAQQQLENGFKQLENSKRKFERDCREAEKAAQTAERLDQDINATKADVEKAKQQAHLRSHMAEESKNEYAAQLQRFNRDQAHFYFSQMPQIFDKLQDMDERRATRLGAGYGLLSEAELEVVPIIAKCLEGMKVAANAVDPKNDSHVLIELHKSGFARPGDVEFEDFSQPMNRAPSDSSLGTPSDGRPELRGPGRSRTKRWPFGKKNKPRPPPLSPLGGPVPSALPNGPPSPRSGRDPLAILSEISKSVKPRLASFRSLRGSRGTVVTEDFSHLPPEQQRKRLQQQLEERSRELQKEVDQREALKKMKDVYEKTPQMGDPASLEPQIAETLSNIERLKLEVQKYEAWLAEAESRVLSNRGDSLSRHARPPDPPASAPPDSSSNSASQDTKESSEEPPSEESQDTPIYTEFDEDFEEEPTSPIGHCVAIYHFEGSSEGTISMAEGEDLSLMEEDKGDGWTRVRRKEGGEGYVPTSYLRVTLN
UniProt Q7Z392: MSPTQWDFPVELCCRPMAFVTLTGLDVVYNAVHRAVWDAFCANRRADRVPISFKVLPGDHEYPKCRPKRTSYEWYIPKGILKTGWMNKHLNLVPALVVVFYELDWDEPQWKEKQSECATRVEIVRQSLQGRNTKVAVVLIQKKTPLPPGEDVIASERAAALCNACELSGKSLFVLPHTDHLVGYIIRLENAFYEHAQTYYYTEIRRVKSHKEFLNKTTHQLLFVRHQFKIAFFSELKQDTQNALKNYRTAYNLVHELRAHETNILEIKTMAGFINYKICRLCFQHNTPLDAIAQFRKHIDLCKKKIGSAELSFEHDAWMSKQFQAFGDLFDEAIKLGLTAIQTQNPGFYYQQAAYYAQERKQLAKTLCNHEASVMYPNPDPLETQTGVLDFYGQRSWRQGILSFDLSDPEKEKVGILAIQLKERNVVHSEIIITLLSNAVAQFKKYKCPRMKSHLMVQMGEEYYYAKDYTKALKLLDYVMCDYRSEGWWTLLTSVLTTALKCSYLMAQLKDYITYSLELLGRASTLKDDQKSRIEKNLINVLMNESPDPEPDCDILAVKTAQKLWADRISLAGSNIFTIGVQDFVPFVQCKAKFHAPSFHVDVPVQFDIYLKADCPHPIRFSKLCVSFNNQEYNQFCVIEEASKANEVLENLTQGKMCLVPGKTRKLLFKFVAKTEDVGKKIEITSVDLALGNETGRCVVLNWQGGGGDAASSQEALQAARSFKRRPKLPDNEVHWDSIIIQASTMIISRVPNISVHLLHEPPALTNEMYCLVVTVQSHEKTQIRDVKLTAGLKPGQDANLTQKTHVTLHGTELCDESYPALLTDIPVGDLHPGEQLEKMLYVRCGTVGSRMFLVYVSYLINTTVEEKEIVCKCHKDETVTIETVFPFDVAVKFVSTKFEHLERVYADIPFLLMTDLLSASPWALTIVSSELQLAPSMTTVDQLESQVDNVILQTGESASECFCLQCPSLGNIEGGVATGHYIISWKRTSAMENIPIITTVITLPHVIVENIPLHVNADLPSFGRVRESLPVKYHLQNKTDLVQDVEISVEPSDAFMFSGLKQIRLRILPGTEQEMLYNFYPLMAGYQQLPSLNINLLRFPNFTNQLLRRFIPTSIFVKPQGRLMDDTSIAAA
UniProt Q86TN4: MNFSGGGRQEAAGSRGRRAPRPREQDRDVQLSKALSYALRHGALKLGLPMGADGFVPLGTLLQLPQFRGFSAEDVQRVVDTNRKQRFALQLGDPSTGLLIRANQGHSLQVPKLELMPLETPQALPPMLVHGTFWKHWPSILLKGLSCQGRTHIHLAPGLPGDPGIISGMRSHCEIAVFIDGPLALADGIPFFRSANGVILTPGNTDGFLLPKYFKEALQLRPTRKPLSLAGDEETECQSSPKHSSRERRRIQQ
UniProt Q15629: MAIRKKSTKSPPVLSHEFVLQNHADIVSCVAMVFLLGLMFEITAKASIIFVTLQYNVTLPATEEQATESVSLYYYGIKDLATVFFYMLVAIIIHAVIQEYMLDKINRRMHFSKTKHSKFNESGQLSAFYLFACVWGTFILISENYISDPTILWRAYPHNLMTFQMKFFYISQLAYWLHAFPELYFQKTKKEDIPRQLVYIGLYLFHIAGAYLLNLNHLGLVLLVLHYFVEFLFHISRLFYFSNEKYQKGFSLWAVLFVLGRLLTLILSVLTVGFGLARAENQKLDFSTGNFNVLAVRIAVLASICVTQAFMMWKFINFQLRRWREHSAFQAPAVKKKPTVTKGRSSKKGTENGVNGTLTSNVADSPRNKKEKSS
UniProt Q6ZVM7: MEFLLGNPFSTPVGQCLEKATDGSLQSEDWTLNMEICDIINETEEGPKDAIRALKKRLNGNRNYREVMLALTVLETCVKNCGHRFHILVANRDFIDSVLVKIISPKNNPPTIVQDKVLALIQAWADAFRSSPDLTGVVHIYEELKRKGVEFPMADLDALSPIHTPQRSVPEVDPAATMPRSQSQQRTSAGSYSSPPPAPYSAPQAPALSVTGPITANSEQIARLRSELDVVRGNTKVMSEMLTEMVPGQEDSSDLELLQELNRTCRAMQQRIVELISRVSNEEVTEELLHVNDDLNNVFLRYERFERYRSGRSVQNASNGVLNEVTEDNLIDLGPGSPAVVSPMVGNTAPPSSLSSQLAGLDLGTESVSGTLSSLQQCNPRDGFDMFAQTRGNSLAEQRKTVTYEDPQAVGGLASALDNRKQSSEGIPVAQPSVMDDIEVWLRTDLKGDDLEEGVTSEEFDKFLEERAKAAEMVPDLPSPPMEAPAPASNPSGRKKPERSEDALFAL

Key:
Test in all cases: log2 fold change, soluble protein after heating vs DMSO (PISA); higher = thermal stabilisation; K562 cells, 10 uM, 30 min; active = over 0.2 and 3.5 SD of the protein, either way, in both replicates (recomputed)
[1] = compound: CS(=O)(=O)c1ccc(-c2cnc(N)c(C(=O)Nc3ccccc3)n2)cc1
Method in brief: (§1)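 K562 cells at 2×10^6 cells/mL were treated with 10 μM compound for 30 min. Aliquots were heated for 3 min across 48°C-58°C, pooled, and extracted in PBS with 0.5% NP-40 at 4°C; soluble protein was the supernatant after 21,000xg for 90 min. Soluble protein was quantified by TMTpro 16plex LC-MS/MS with channel sums equalised, and reported as log2 fold change in thermal stability against DMSO controls, with values from duplicates.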

[2] = compound: C[C@@H](Oc1cc(-c2cnn(C3CCNCC3)c2)cnc1N)c1c(Cl)ccc(F)c1Cl [crizotinib]
Method in brief: as §1

[3] = compound: C[C@@H]1COCCN1C2=NC(=NC(=C2)C3(CC3)S(=O)(=O)C)C4=C5C=CNC5=CC=C4
Method in brief: as §1

[4] = compound: C[C@H](C1=CC=C(C=C1)C(=O)NC2=C3C=CNC3=NC=C2)N
Method in brief: as §1

[5] = compound: Cc1cc(Nc2cc(CN3CCOCC3)c3nc(C)c(Cc4ccc(Cl)cc4F)n3n2)n[nH]1 [gandotinib]
Method in brief: as §1

[6] = compound: Cc1cc(SCc2sc(-c3ccc(C(F)(F)F)cc3)nc2C)ccc1OCC(=O)O
Method in brief: as §1

[7] = compound: Cc1ccc(-n2nc(C(C)(C)C)cc2NC(=O)Nc2ccc(OCCN3CCOCC3)c3ccccc23)cc1 [doramapimod]
Method in brief: as §1

[8] = compound: Cc1ccc(C(=O)N(CCCN)[C@@H](c2nc3cc(Cl)ccc3c(=O)n2Cc2ccccc2)C(C)C)cc1 [ispinesib]
Method in brief: as §1

[9] = compound: Cc1ccc(NC(=O)c2ccc(CN3CC[C@H](N(C)C)C3)c(C(F)(F)F)c2)cc1Nc1nccc(-c2cncnc2)n1 [bafetinib]
Method in brief: as §1

[10] = compound: Cc1cccc(CC(=O)N2CCc3c2ccc(-c2cn(C)c4ncnc(N)c24)c3F)n1
Method in brief: as §1

[11] = compound: Cc1cn(-c2cc(NC(=O)c3ccc(C)c(Nc4nccc(-c5cccnc5)n4)c3)cc(C(F)(F)F)c2)cn1 [nilotinib]
Method in brief: as §1

[12] = compound: Cc1nc(Nc2n[nH]c3c2CN(C(=O)N[C@H](CN(C)C)c2ccccc2)C3(C)C)c2sccc2n1
Method in brief: as §1

[13] = compound: Cc1nc(Nc2ncc(C(=O)Nc3c(C)cccc3Cl)s2)cc(N2CCN(CCO)CC2)n1 [dasatinib]
Method in brief: as §1

[14] = compound: Cc1ncc(-c2ccnc(Nc3ccc(S(C)(=O)=O)cc3)n2)n1C(C)C
Method in brief: as §1

[15] = compound: Cn1cc(-c2ccc3c(c2)CCN3C(=O)Cc2cccc(C(F)(F)F)c2)c2c(N)ncnc21
Method in brief: as §1

[16] = compound: Cn1cc(-c2ccc3nnc(C(F)(F)c4ccc5ncccc5c4)n3n2)cn1
Method in brief: as §1

[17] = compound: Cn1cncc1[C@@](N)(c1ccc(Cl)cc1)c1ccc2c(c1)c(-c1cccc(Cl)c1)cc(=O)n2C [tipifarnib]
Method in brief: as §1

[18] = compound: FC(F)(F)c1ccc(/C=C/c2nc(COc3ccc(CCCCn4ccnn4)cc3)co2)cc1 [mubritinib]
Method in brief: as §1

[19] = compound: C[C@H](Nc1ncnc2nc[nH]c12)c1cc2cccc(Cl)c2c(=O)n1-c1ccccc1 [duvelisib]
Method in brief: as §1

[20] = compound: Cc1cc(Nc2cc(N3CCN(C)CC3)nc(Sc3ccc(NC(=O)C4CC4)cc3)n2)n[nH]1 [tozasertib]
Method in brief: as §1

Measured: log2 fold change

TNPO2 (UniProt O14787)
inactive: [1] 0.019 | [2] -0.153 | [3] 0.046 | [4] -0.037 | [5] -0.059 | [6] 0.048 | [7] 0.011 | [8] -0.14 | [9] -0.004 | [10] 0.129 | [11] -0.122 | [12] -0.111 | [13] -0.173 | [14] -0.087 | [15] -0.076 | [16] -0.011 | [17] -0.011 | [18] 0.043

TRIM5 (UniProt Q9C035)
inactive: [1] -0.032 | [3] 0.037 | [4] 0.148 | [6] -0.127 | [13] -0.088 | [15] 0.013 | [16] 0.133
active: [8] -0.821

TOMM7 (UniProt Q9P0U1)
inactive: [1] 0.013 | [2] 0.123 | [3] 0.027 | [19] 0.139 | [5] -0.056 | [20] -0.024 | [6] 0.051 | [7] 0.083 | [8] 0.058 | [9] -0.018 | [10] -0.005 | [11] 0.014 | [12] 0.014 | [13] 0.049 | [14] -0.083 | [16] 0.15 | [17] 0.051 | [18] 0.009

TRABD (UniProt Q9H4I3)
active: [8] 0.597
inactive: [1] -0.041 | [2] 0.174 | [3] 0.097 | [4] -0.062 | [5] 0.059 | [7] 0.025 | [9] 0.202 | [10] -0.038 | [11] 0.185 | [12] 0.02 | [14] -0.093 | [15] 0.145 | [16] -0.013 | [17] 0.012 | [18] -0.032

TNPO1 (UniProt Q92973)
inactive: [1] -0.008 | [2] -0.034 | [3] 0.058 | [4] -0.116 | [5] -0.128 | [6] 0.011 | [7] -0.034 | [8] -0.113 | [9] -0.104 | [10] 0.022 | [11] -0.037 | [12] -0.128 | [13] -0.067 | [14] -0.079 | [15] -0.034 | [16] 0.009 | [17] -0.026 | [18] 0.005

TPPP3 (UniProt Q9BW30)
inactive: [1] 0.083 | [2] 0.1 | [3] 0.065 | [7] 0.002 | [8] 0.021 | [16] 0.055

TRAF7 (UniProt Q6Q0C0)
inactive: [1] 0.028 | [2] 0.241 | [3] -0.082 | [4] -0.025 | [7] -0.063 | [9] 0.006 | [15] -0.146 | [17] -0.085 | [18] -0.06

TRIP10 (UniProt Q15642)
inactive: [1] 0.08 | [2] -0.009 | [3] -0.085 | [4] -0.026 | [5] 0.044 | [6] 0.038 | [7] -0.036 | [8] -0.021 | [9] -0.042 | [10] 0.05 | [11] 0.098 | [12] -0.017 | [13] -0.06 | [14] -0.021 | [15] 0.045 | [16] 0.024 | [17] -0.01 | [18] 0.048

TRAPPC11 (UniProt Q7Z392)
inactive: [1] -0.004 | [2] 0.008 | [3] 0.051 | [4] 0.075 | [5] -0.047 | [6] 0.1 | [7] 0.028 | [8] -0.079 | [9] 0.065 | [10] 0.05 | [11] -0.098 | [12] -0.129 | [13] -0.159 | [14] 0.01 | [15] -0.04 | [16] -0.03 | [17] -0.06 | [18] 0.04

TRPT1 isoform 4 (UniProt Q86TN4)
inactive: [1] -0.176 | [2] -0.011 | [7] 0.013 | [8] -0.105 | [16] -0.011 | [18] 0.041

TRAM1 (UniProt Q15629)
active: [2] -0.587 | [5] -0.47 | [8] -0.964
inactive: [1] 0.075 | [3] 0.017 | [4] 0.014 | [6] 0.09 | [7] -0.119 | [9] -0.152 | [10] 0.117 | [11] -0.075 | [12] 0.074 | [13] -0.138 | [14] 0.072 | [15] -0.07 | [16] 0.02 | [17] -0.152 | [18] -0.022

Four neighbouring entries from above:
TRIP10 (UniProt Q15642)
inactive: [1] 0.08 | [2] -0.009 | [3] -0.085 | [4] -0.026 | [5] 0.044 | [6] 0.038 | [7] -0.036 | [8] -0.021 | [9] -0.042 | [10] 0.05 | [11] 0.098 | [12] -0.017 | [13] -0.06 | [14] -0.021 | [15] 0.045 | [16] 0.024 | [17] -0.01 | [18] 0.048

TRAPPC11 (UniProt Q7Z392)
inactive: [1] -0.004 | [2] 0.008 | [3] 0.051 | [4] 0.075 | [5] -0.047 | [6] 0.1 | [7] 0.028 | [8] -0.079 | [9] 0.065 | [10] 0.05 | [11] -0.098 | [12] -0.129 | [13] -0.159 | [14] 0.01 | [15] -0.04 | [16] -0.03 | [17] -0.06 | [18] 0.04

TRPT1 isoform 4 (UniProt Q86TN4)
inactive: [1] -0.176 | [2] -0.011 | [7] 0.013 | [8] -0.105 | [16] -0.011 | [18] 0.041

TRAM1 (UniProt Q15629)
active: [2] -0.587 | [5] -0.47 | [8] -0.964
inactive: [1] 0.075 | [3] 0.017 | [4] 0.014 | [6] 0.09 | [7] -0.119 | [9] -0.152 | [10] 0.117 | [11] -0.075 | [12] 0.074 | [13] -0.138 | [14] 0.072 | [15] -0.07 | [16] 0.02 | [17] -0.152 | [18] -0.022

Further entries follow:

TOM1L2 (UniProt Q6ZVM7)
inactive: [1] 0.03 | [2] 0.101 | [3] 0.118 | [4] 0.087 | [6] 0.035 | [7] 0.02 | [11] -0.047 | [12] -0.127 | [13] -0.091 | [14] -0.125 | [15] 0.028

TRIO (UniProt O75962)
inactive: [1] 0.057 | [2] -0.021 | [3] 0.233 | [20] -0.035 | [7] 0.084 | [8] -0.171 | [9] -0.056 | [11] -0.006 | [12] 0.052 | [14] -0.042 | [16] 0.156 | [18] 0.163
